At least one compound was matched to its structure with a doubt left.
Tests used:
[1] = releases 2 molecules of NO per carrier moiety; cited from earlier work
HL-60/TET/RNO2 cells [2] = test: Cell growth after Tetracycline induction of rno-2 (Coulter counter); format: cell-based, human; details: 2 or 5 μg/ml Tetracycline, seven days
HL-60/TET/RNO2 cells [3] = test: Cell differentiation/morphology after Tetracycline induction of rno-2 (Wright's stain); format: cell-based, human; details: Tetracycline 5 μg/mL, 5 days
HL-60/TET/RNO2 cells [4] = test: Apoptosis after Tetracycline induction of rno-2 (flow cytometry); format: cell-based, human; details: 7.5 or 10 μg/mL single dose or 7.5 μg/mL daily for 3 days, day 3
HL-60 cells = test: Apoptosis after Tetracycline in parent cell line (flow cytometry); format: cell-based, human; details: parent HL-60 cell line, same doses and schedule of Tetracycline, day 3
HL-60/TET cells = test: Cell growth after Tetracycline, control line without rno-2 vector (Coulter counter); format: cell-based, human; details: HL-60/TET cells (no rno-2 expression), 2 or 5 μg/ml Tetracycline, seven days

Compound	half-life of NO release [1] [h]	cell growth (HL-60/TET/RNO2 cells [2])	cell morphology / differentiation (HL-60/TET/RNO2 cells [3])	number of apoptotic cells (HL-60/TET/RNO2 cells [4])	number of apoptotic cells (HL-60 cells)	cell growth (HL-60/TET cells)
NCCN(CCN)/[N+]([O-])=N/O [DETA-NO]	20	–	–	–	–	–
CN(C)[C@@H]1C(O)=C(C(N)=O)C(=O)[C@@]2(O)C(O)=C3C(=O)c4c(O)cccc4[C@@](C)(O)[C@H]3C[C@@H]12 [Tetracycline]	–	significant growth inhibition	morphologic changes suggestive of a monocytic phenotype	significantly increased the number of apoptotic HL-60/TET/RNO2 cells	did not significantly increase the number of apoptotic HL-60 cells	did not affect cell growth

Reference: patent publication US20010029033A1, “Novel gene rno upregulated in leukemia cells by nitric oxide and DMSO” (priority 2000, published 2001)
